Assay results reported in PMC3725416.

Sequences of proteins named here, by UniProt entry; tags and fusion partners are left off. A change or cut given only in a name is not applied to a line headed by its entry.
UniProt Q9NZ52: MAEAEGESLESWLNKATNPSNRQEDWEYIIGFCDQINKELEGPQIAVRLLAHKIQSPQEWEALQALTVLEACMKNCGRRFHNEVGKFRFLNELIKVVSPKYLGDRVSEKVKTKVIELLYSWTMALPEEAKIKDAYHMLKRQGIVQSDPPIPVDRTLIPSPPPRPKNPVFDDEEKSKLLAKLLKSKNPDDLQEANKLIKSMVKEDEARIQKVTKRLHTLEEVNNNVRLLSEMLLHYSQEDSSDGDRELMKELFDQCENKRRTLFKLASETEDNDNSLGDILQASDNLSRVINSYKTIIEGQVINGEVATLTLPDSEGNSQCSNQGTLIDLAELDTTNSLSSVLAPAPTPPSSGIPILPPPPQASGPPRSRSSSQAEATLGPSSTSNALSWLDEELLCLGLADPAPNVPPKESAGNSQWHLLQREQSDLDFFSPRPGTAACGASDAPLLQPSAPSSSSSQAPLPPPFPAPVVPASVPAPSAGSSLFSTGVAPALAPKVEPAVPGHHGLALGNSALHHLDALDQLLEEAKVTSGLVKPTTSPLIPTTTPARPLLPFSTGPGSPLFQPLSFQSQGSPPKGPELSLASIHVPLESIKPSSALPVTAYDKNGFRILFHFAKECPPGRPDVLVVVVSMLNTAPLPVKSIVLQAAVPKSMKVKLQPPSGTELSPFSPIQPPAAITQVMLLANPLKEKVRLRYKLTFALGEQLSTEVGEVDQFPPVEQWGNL
UniProt P84079: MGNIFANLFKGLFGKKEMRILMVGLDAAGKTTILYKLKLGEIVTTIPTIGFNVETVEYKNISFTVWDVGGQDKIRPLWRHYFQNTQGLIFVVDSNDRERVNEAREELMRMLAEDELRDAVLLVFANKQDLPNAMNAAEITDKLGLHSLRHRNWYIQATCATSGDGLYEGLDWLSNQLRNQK
UniProt P84077: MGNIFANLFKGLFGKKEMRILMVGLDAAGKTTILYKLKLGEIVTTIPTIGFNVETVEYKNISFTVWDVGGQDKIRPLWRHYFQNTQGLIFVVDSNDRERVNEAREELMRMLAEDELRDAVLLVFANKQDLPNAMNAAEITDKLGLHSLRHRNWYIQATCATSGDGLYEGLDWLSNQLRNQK

Key:
[1] = biological target: GST-VHS-GAT domain of GGA3 (UniProt Q9NZ52); assay: pull-down; extracts of cultured neurons (with or without NMDA; control or GIT1 siRNA) incubated with immobilised GST-VHS-GAT; western blot with anti-Arf1 and anti-GST; only the target purified
[2] = biological target: GST-VHS-GAT domain of GGA3 (UniProt Q9NZ52); assay: pull-down; immobilised GST-VHS-GAT domain of GGA3 incubated with GDPβS- or GTPγS-loaded his6WT-Arf1 or his6ΔCT-Arf1; western blot with anti-Arf1 or anti-GST; both purified

| binding [1] | binding [2] | Substance |
| --- | --- | --- |
| binds | – | Arf1 (endogenous, cultured neurons) (from UniProt P84079 1-181) |
| – | binds | his6-Arf1 (wild type) (from UniProt P84077 1-181) |
| – | binds | his6-ΔCT-Arf1 (from UniProt P84077 1-177) (domain or fragment) |

No constants are given. Whether binding was seen depends on the method and setting. Binding can be weak; no strength is given. For part of these data: In cells and extracts the contact can be indirect.
